The target of assay [1] is T1, FLAG-tagged WT CMTR2 (Cap-specific mRNA (nucleoside-2'-O-)-methyltransferase 2) (human) (UniProt Q8IYT2).
T1 sequence: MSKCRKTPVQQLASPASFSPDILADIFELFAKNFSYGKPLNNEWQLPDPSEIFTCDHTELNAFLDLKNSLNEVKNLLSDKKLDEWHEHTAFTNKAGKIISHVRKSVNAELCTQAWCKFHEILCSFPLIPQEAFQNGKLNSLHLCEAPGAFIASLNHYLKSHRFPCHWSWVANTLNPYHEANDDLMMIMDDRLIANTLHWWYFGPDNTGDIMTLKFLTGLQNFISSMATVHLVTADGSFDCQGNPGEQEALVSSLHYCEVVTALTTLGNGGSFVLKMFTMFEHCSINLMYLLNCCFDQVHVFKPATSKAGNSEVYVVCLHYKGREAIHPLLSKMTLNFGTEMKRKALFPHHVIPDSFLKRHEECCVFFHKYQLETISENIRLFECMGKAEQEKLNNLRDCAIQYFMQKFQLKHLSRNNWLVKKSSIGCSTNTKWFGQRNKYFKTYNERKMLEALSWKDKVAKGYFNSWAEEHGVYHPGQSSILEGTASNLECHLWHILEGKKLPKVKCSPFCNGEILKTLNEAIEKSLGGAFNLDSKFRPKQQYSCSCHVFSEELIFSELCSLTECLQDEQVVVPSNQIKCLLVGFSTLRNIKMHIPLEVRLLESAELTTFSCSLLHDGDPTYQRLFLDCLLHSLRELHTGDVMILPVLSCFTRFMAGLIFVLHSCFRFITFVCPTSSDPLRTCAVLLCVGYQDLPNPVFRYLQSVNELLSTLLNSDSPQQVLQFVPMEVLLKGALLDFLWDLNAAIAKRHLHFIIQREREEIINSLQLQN
Briefly: co-IP; anti-FLAG immunoprecipitation from lysates of doxycycline-induced Flp-in T-REx 293 cells (20 mM HEPES pH 7.5, 300 mM NaCl, 0.5% NP-40, 4 °C); immunoblot for SNRNP70.

Protein sequences, listed by entry. Tags and fused reporters are not part of them.
UniProt P08621: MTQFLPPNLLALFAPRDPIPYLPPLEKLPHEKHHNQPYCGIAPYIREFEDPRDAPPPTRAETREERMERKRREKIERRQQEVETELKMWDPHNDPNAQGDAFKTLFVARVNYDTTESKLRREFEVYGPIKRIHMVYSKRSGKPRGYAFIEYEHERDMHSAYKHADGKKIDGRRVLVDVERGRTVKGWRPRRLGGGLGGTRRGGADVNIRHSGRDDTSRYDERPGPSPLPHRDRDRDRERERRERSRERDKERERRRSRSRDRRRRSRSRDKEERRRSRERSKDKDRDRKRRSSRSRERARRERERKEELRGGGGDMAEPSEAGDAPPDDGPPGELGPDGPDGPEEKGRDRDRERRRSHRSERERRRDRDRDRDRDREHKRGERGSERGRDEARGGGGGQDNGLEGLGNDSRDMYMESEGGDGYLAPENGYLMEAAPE

The target of assay [2] is T2, FLAG-tagged CMTR2 K117N mutant (human) (UniProt Q8IYT2).
T2 sequence: T1 sequence with K117N
The description is as above.

Where a chain is given by its changes, count along the chain named. Results are given in words; binding and its absence hold for the method and conditions named. Binding seen in cells or lysates may run through a third protein. Some binding calls cover weakened binding; strength is not graded here. Tags and fused reporters may be left off the sequences shown.

On to “SNRNP70 (U1 snRNP component) (from UniProt P08621 1-437)”, for which the binding entry is reported as “binds” in assay [1] and “no binding” in assay [2].

The record behind these values is PMC12592727.
